Measurements reported in PubChem BioAssay AID720504 (National Center for Advancing Translational Sciences (NCATS), 2013).
Out of some 360,000 compounds screened, about 10,000 (2.8%) were called active. This list was built around the results that the source calls inconclusive (neither active nor inactive); the mix of calls is not that of the screen. Calls come from the whole dose curve; as a rule, active = well fitted inhibition curve with a large enough effect; inconclusive = small, poorly fitted or top-dose-only effect; inactive = flat fitted curve, though single readings scatter. Where the call is inconclusive, the potency comes from a doubtful curve fit.

Chains of the proteins cited; added tags and fusions are not shown.
UniProt P53350, whole entry, looked up: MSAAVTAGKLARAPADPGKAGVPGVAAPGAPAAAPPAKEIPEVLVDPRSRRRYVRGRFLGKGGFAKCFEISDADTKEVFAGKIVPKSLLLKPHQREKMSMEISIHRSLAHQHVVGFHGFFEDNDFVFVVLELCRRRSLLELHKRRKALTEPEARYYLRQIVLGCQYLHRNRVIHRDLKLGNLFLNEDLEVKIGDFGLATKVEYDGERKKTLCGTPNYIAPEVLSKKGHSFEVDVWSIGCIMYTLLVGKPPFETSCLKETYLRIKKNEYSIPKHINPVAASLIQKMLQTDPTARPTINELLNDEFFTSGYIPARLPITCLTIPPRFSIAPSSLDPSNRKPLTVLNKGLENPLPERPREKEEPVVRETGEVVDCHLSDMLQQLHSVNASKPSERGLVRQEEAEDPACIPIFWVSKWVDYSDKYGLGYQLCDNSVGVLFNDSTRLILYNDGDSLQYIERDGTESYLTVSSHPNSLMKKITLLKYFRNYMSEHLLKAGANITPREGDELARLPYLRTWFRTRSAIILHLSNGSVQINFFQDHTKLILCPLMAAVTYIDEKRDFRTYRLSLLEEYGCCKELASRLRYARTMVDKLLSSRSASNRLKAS

Molecular target: Serine/threonine-protein kinase PLK1 (Homo sapiens) (UniProt P53350)
Test: qHTS for Inhibitors of PLK1-PDB (polo-like kinase 1 - polo-box domain): Primary Screen; note: nearly all actives have a fitted effect of over 65% in size; for max response, negative = inhibition: series mostly up to about 57 µM
Details: Plk1 PBD binding of FITC phosphopeptide, fluorescence polarization
% is set by controls: 0 for no effect and ±100 for the full control effect; potency is the fitted concentration of half-maximal effect.

| SMILES | Potency | max response, negative = inhibition |
| --- | --- | --- |
| Cc1ccc(S(=O)(=O)NN2C(=O)/C(=C/c3cccc(F)c3)SC2=S)cc1 | inconclusive: 21.2 µM [inhibitor, single point] |  |
| CCNc1ccccc1CP(=O)(c1ccccc1)c1ccccc1O (stereo not given) | active: 21.2 µM |  |
| COc1ccc(NC(=O)C2Cc3c(-c4cccc(NC(C)=O)c4)ccnc3O2)cc1 (stereo not given) |  | inactive: -8.96% |
| CCN(CC)C(=O)C1=C(C)N(Cc2ccc(C(C)(C)C)cc2)C(=O)C(CC(=O)NC2CC2)C1 (stereo not given) |  | inactive: 0.148% |
| Nc1ccccc1C(=O)N1O[C@@H]2C=C[C@H]1C2 | inconclusive: 16.8 µM [inhibitor, partial curve] |  |
| Cc1cc(C)n(CCc2nc(-c3ccc(C)o3)cs2)n1 | inconclusive: 29.9 µM [inhibitor, partial curve] |  |
| C[C@H]1COC(=O)[C@@H](CC(=O)OC(C)(C)C)C/C=C\C[C@H](CC(=O)NCCO)C(=O)N1 |  | inactive: 1.1% |
| Cc1cc(C(=O)OCC(=O)Nc2ccc(F)cc2[N+](=O)[O-])c2ccccc2n1 |  | inactive: 1.85% |
| Cc1cc(C)nc(Nc2n[nH]c(-c3ccccc3Br)n2)n1 |  | inactive: -7.9% |
| O=c1c(C=NCc2cccnc2)c(C(F)(F)F)[nH]n1-c1nc2ccccc2s1 |  | inactive: -18.9% |
| O=C(CN(C(=O)CNS(=O)(=O)c1ccccc1)c1ccc(F)cc1)NCc1ccco1 |  | inactive: -12.8% |
| CN(Cc1ccccc1)C(=O)C1CCN(S(=O)(=O)c2ccc3nc4c(c(C(=O)O)c3c2)CCCC4)CC1 | inconclusive: 75.2 µM [inhibitor, partial curve, poor fit] |  |
| O=C1OC(c2ccc(F)cc2)=N/C1=C\c1ccc(Br)o1 |  | inactive: -13.8% |
| COc1ccc(N2CCCC2)c(NC(=O)c2ccc([N+](=O)[O-])o2)c1 | active: 23.8 µM |  |
| COc1ccc(C2(CNC(=O)c3ccc(OCC(C)C)cc3)CCOCC2)cc1 | inconclusive: 37.7 µM [inhibitor, single point] |  |
| CCc1[nH]nc2c1C(c1ccsc1)C(C#N)=C(N)O2 (stereo not given) |  | inconclusive: -31.1% [inhibitor] |
| O=C(NNC(=S)Nc1ccc(Cl)cc1Cl)c1ccc(N2CCOCC2)c([N+](=O)[O-])c1 | inconclusive: 23.8 µM [inhibitor, single point] |  |
| Cc1nnc(NC(=O)C2CCCO2)s1 (stereo not given) | inconclusive: 26.7 µM [inhibitor, partial curve] |  |
| CCOC(=O)C1CCCN(Cc2nc(N)nc(Nc3ccc(OC)cc3)n2)C1 (stereo not given) | active: 26.7 µM |  |
| Cc1cc(C(=O)NCC(=O)Nc2ccc(F)c(F)c2)c(C)o1 |  | inactive: -2.95% |
| COc1ccc(S(=O)(=O)N2CCOC2CNC(=O)C(=O)NCCN2CCOCC2)cc1OC (stereo not given) |  | inactive: -1.79% |
| CCOC(=O)C1C(C(=O)Nc2cccc(C(F)(F)F)c2)C1C(=O)NC(C)C (stereo not given) |  | inactive: 5.6% |
| CCc1nn(C(C)C(=O)NC2CCCCCC2)c(=O)c2cc3occc3n12 (stereo not given) | inconclusive: 4.23 µM [inhibitor, full curve] |  |
| c1csc(-c2cnc3n2CCCC3)c1 | inconclusive: 37.7 µM [inhibitor, single point] |  |

| SMILES | Potency | max response, negative = inhibition |
| --- | --- | --- |
| COc1ccc(CNC(=O)CSc2ccc(Br)cc2)cc1OC | inconclusive: 23.8 µM [inhibitor, partial curve] |  |
| Cc1ccc(-c2nc3ccc(Cl)cn3c2Cc2ccsc2)cc1 | inconclusive: 23.8 µM [inhibitor, single point] |  |
| CC(C)c1ccc(NC(=O)c2csnn2)cc1 |  | inactive: -7.51% |
| O=C(O)c1cocc1C(=O)O |  | inactive: -6.16% |
| O=C(COC(=O)CCCC1=NS(=O)(=O)c2ccccc2N1)Nc1ccc(Br)cc1 | inconclusive: 26.7 µM [inhibitor, single point] |  |
| CCc1c(C)sc(NC(=O)OC)c1C(=O)N1CCCCC1 | inconclusive: 22.4 µM [inhibitor, partial curve] |  |
| COc1ccccc1NC(=S)N1CCC(NC(=O)NC23CC4CC(CC(C4)C2)C3)CC1 | inconclusive: 37.7 µM [inhibitor, single point] |  |
| COc1ccc(CN(C)CC(=O)NC(=O)NCc2ccccc2)c(OC)c1 |  | inactive: -7.32% |
| Cc1cc(=O)oc(C)c1C(=O)OCC(=O)c1ccc(Cl)cc1 |  | inactive: -1.5% |
| Cc1cc(C(=O)NCC(=O)O)c(C)o1 |  | inactive: 0.713% |
| CC(Oc1cccc(F)c1)c1ccnc2nc(/N=C/N(C)C)nn12 (stereo not given) | active: 21.2 µM |  |
| CCN1C(=O)c2cccc3c(NC(=O)c4cccc(N5C(=O)CCC5=O)c4)ccc1c23 |  | inactive: -2.06% |
| CCOC(=O)c1c(C)[nH]c2cc(Br)c(O)cc12 | inconclusive: 37.7 µM [inhibitor, single point] |  |
| CN(C)CCCN(C(=O)CCS(=O)(=O)c1ccccc1)c1nc2cc3c(cc2s1)OCO3 | inconclusive: 2.38 µM [inhibitor, full curve] |  |
| CCOC(=O)c1cnc(SC2CCc3ccccc3C2=O)nc1N (stereo not given) | active: 26.7 µM |  |
| CCN(c1ccccc1)S(=O)(=O)c1ccc(OC)c(NC(=O)COc2ccc(C(C)=O)cc2)c1 |  | inactive: 4.71% |
| Cc1ccc(-c2n[nH]c(=S)n2/N=C/c2cc3c(cc2[N+](=O)[O-])OCO3)cc1 | inconclusive: 26.7 µM [inhibitor, partial curve] |  |
| CN1CCN(C(=O)C2CCN(c3ncnc4c3nc3n4CCCCC3)CC2)CC1 | inconclusive: 23.8 µM [inhibitor, partial curve] |  |
| COC1=CC(=O)C(O)=C(CCCCCCC/C=C/CCCCCCCC2=C(O)C(=O)C=C(OC)C2=O)C1=O | active: 18.9 µM |  |
| Cc1cc(C(=O)CSc2nnc(-c3ccc(Cl)cc3)n2CC2CCCO2)c(C)n1C (stereo not given) | inconclusive: 29.9 µM [inhibitor, partial curve] |  |
| CCOC(=O)c1c2ccccc2[n+]([O-])n1[C@@H](C)C(N)=O | inconclusive: 21.2 µM [inhibitor, partial curve] |  |
| O=C(c1ccco1)[C@@H]1[C@@H]2C(=O)N(c3ccc(Br)cc3)C(=O)[C@@H]2C2c3ccccc3C=CN21 (stereo not given in full) | inconclusive: 29.9 µM [inhibitor, partial curve] |  |
| CC(C)(C)OC(=O)NCCc1nnc(S(=O)(=O)Cc2ccc(Cl)cc2Cl)o1 | inconclusive: 8.44 µM [inhibitor, partial curve] |  |
| Cc1ccccc1-n1ncc2c1CC(C)(C)CC2NC(=O)c1cn[nH]c1C (stereo not given) | active: 29.9 µM |  |

| SMILES | Potency | max response, negative = inhibition |
| --- | --- | --- |
| Cc1cc[n+](-c2[nH]c(=O)sc2/C=N/NC([S-])=Nc2ccccc2)cc1C | inconclusive: 23.8 µM [inhibitor, single point] |  |
| C=CCOc1ccc(C2/C(=C(\O)c3ccc4c(c3)CC(C)O4)C(=O)C(=O)N2CCN2CCOCC2)cc1OCC (stereo not given) | inconclusive: 29.9 µM [inhibitor, partial curve] |  |
| CC(=O)Cc1nsc(NC(=O)c2ccc(-c3ccc(Cl)cc3Cl)o2)n1 |  | inactive: -24.6% |
| COC(=O)C1=CN(c2cccc(C)c2)C=C(C(=O)OC)C1c1cc(OC)c(O)c([N+](=O)[O-])c1 | inconclusive: 21.2 µM [inhibitor, single point] |  |
| CCOc1ccc(N(CCCCO)C(=S)NC(=O)c2ccc(C)c(Br)c2)cc1 | inconclusive: 29.9 µM [inhibitor, partial curve] |  |
| CN(CC(=O)Nc1c(Cl)cccc1Cl)C(=O)c1sccc1-c1ccccc1 |  | inactive: -6.48% |
| Cn1nc(-c2ccc(Cl)cc2)c2cc(C(=O)NC3CC3)sc21 | active: 29.9 µM |  |
| CCOC(=O)C1CCCN(C(=O)/C=C/c2ccc(Cl)cc2)C1 (stereo not given) | inconclusive: 29.9 µM [inhibitor, partial curve] |  |
| O=C(/C=C/c1ccccc1)NC(NC(=S)Nc1ccc(Cl)cc1)C(Cl)(Cl)Cl (stereo not given) | active: 26.7 µM |  |
| CCCCNC(=O)CSc1nnc(Cc2ccc(Cl)c(Cl)c2)c(=O)[nH]1 |  | inconclusive: -30.2% [inhibitor] |
| CCOC(=O)c1cc(-c2ccc(C)cc2)n(CCC(=O)N2CCN(c3ccccn3)CC2)c1C |  | inactive: -2.59% |
| CC(Oc1ccccc1)C(=O)Nc1oc(-c2ccco2)c(-c2ccco2)c1C#N (stereo not given) | inconclusive: 26.7 µM [inhibitor, partial curve, poor fit] |  |
| S=C1SCN(Cc2ccccn2)CN1Cc1ccco1 | inconclusive: 26.7 µM [inhibitor, partial curve] |  |
| Nc1nnc(SCC(=O)c2cccc([N+](=O)[O-])c2)s1 |  | inconclusive: -31.2% [inhibitor] |
| CC(C)C[C@@H](CNCC(=O)[C@H](CC(C)C)NC(=O)c1[nH]cnc1C(=O)N[C@@H](C)CN)NC(=O)c1nc[nH]c1C(=O)N[C@@H](CC(=O)O)C(=O)O | inconclusive: 21.2 µM [inhibitor, single point] |  |
| O=C(CSc1nnc(COc2ccccc2)o1)NCCc1ccccc1 | active: 2.67 µM |  |
| O=C(CC1Sc2ccccc2NC1=O)NNc1cccc(Cl)c1Cl (stereo not given) |  | inactive: -3.02% |
| O=C(Nc1c(-c2ccc3c(c2)OCO3)[nH][nH]c1=O)c1ccccc1 | active: 13.4 µM |  |
| Nc1nc(-c2ccc(F)cc2)cs1 | inconclusive: 29.9 µM [inhibitor, partial curve] |  |
| CC(O)c1cccc(N=Cc2ccc3ccccc3c2O)c1 (stereo not given) | inconclusive: 23.8 µM [inhibitor, single point] |  |
| O=C(O)CCN1C(=O)c2ccc(Oc3ccc([N+](=O)[O-])cc3)cc2C1=O |  | inactive: -7.09% |
| Cc1ccc(CNC(=O)CSCc2ccc(F)cc2)cc1 |  | inconclusive: -15.2% [inhibitor] |

Quoted from the listing:
Value of `CC(O)c1cccc(N=Cc2ccc3ccccc3c2O)c1` (stereo not given) under Potency: inconclusive: 23.8 µM [inhibitor, single point]
Value of `S=C1SCN(Cc2ccccn2)CN1Cc1ccco1` under Potency: inconclusive: 26.7 µM [inhibitor, partial curve]
Value of `CC(=O)Cc1nsc(NC(=O)c2ccc(-c3ccc(Cl)cc3Cl)o2)n1` under max response, negative = inhibition: inactive: -24.6%
Value of `O=C(CC1Sc2ccccc2NC1=O)NNc1cccc(Cl)c1Cl` (stereo not given) under max response, negative = inhibition: inactive: -3.02%
